In patent US7846941B2, “Compounds modulating c-kit and c-fms activity and uses therefor” (Plexxikon, Inc., priority 2005, dated 2010):
Some results were stated once for a whole list of compounds, not compound by compound.

Biological target: Fms (UniProt P07333)
Assay: Fms assays of Examples 40 or 41 (AlphaScreen and 33P kinase assays, RAW264.7 pFMS, M-NFS-60 proliferation)
Conditions: read-out: IC50 in at least one of the Fms assays; at least one of the Fms assays described in Examples 40 or 41 (biochemical or cell-based)

SMILES | IC50 [nM]
COc1nc(NCc2ccc(Cl)cc2)ccc1Cc1c[nH]c2ncccc12 [Compound P-0081, (4-Chloro-benzyl)-[6-methoxy-5-(1H-pyrrolo[2,3-b]pyridin-3-ylmethyl)-pyridin-2-yl]-amine] | < 1000
Fc1nc(NCc2ccc(Cl)cc2)ccc1Cc1c[nH]c2ncccc12 [Compound P-0082, (4-Chloro-benzyl)-[6-fluoro-5-(1H-pyrrolo[2,3-b]pyridin-3-ylmethyl)-pyridin-2-yl]-amine] | < 1000
